In patent publication US20240254246A1:
Changes are numbered by the printed parent chain. No constants are given. Whether binding was seen depends on the method and setting. Some entries that bind do so weakly or less than the wild type. Each block holds one binder with its values, some of them ahead of it.

Chains of the proteins cited; added tags and fusions are not shown. Residues count along the entry.
UniProt P32971, residues 63-234: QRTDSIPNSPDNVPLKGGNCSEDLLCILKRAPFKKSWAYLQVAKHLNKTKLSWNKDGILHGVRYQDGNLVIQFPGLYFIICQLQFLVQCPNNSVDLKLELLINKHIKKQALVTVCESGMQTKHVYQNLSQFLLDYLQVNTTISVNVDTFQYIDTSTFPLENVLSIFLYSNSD

What was measured:
[1] = biological target: recombinant human CD30L (human) (UniProt P32971); experiment: ELISA, binding to rhCD30L (OD 450 nm)
[2] = biological target: recombinant cynomolgus CD30L protein (cynomolgus); experiment: ELISA, purified cyno CD30L
[3] = biological target: cynomolgus CD30L expressed on cells (cynomolgus); experiment: flow cytometry, HEK293 cells expressing cyno CD30L
[4] = biological target: recombinant cynomolgus CD30L protein (cynomolgus); experiment: KinExA, Fab
[5] = biological target: recombinant cynomolgus CD30L (cynomolgus); experiment: ELISA, Neutralization of CD30-Fc binding to immobilized cyno CD30L (Absorbance 450 nm)
[6] = biological target: cynomolgus CD30L expressed on HEK293 cells (cynomolgus); experiment: flow cytometry, Cell Binding to HEK293-cyCD30L (MFI)
[7] = biological target: recombinant cynomolgus CD30L (cynomolgus); experiment: ELISA, Binding to CD30L, immobilized cyno CD30L (Absorbance 450 nm)
[8] = biological target: cynomolgus CD30L expressed on HEK293 cells (cynomolgus); experiment: flow cytometry, HEK293-cyCD30L/CD30-Fc Neutralization: blocking of CD30-Fc binding to HEK293-cyCD30L cells

binding [1]: binds
B1: anti-CD30L antibody clone 82 (antibody, V domains shown)
VH: EVQLVESGGGLVQPGGSLRLSCAVSGITFSNAWMSWVRQAPGKGLEWVGRIKSKTYGGTTDYAAPVKGRFIISRDDSKDTLYLQMNSLKTEDTAIYYCTTDPWNYVNYNYFMDVWGKGTTVTVSS
VL: DIQMTQSPSSLSASVGDRVTITCRASQDIRNYLAWYQQKPGKITHLLVYAASTLQSGVPSRFSGSGSGTDFTLTINSLQPEDVATYYCQNYFSVPLTFGGGTKVEIK

binding [1]: binds
B2: anti-CD30L antibody clone 63 (antibody, V domains shown)
VH: EVQLVESGGGLVQPGGSLRLSCAASGFMFSSYSMNWVRQAPGKGLEWVSYISSSSSTIYDADSVKGRFTISRDDAKNSLYLQMNSLRDEDTAVYYCTREAYPGYYYNYMDVWGKGTTVTVSS
VL: DIQMTQSPSSLSASVGDRVTITCRASQSISSRLAWYQQKPGKAPNLLIYKASNLESGVPSRFSGSGSGTEFTLTISSLQPDDFATYYCQQYNSYSRTFGQGTKVEIK

binding [1]: binds
B3: anti-CD30L antibody clone 80 (antibody, V domains shown)
VH: EVQLVESGGGLVQPGGSLRLSCEVSGFTFSSYDMHWVRQVTGTGLEWVSSIGIGGDTYYPGSVKGRFTISRENAKNSLYLQMNSLRGGDTGVYYCARGEWDLLWYFMDVWGKGTTVTVSS
VL: DIQMTQSPSSLSASIGDRVTITCRASQGISSWLAWYQQKPGKAPKLLIYAASSLQSGVPSRFSGSGSGTDFTLTISSLQPEDFATYYCQQANSFPLTFGGGTKVEIK

binding [2]: binds | binding [3]: binds
B4: anti-CD30L antibody clone 2 with IgG1 constant region SEQ ID NO: 502 (antibody, V domains shown)
VH: EVQLVESGGGLVQPGRSLRLSCAASGFNFDDYAMHWVRQAPGKGLEWVSGISWRSGNIGYAGSVKGRFTISRDNAKNSLYLQMNSLRPEDSALYYCAKDKGIGFNWNYEGFDYWGQGTLVTVSS
VL: B3 VL with I15V, S31N, W32H, Y36F, L46S, R61K, A91Y, N92V, S93T, F94Y

binding [4]: binds
B5: Fab of clone 2 germlined (Fab, V domains shown)
VH: B4 VH with G62D, P88A, S91T
VL: B3 VL with I15V, S31N, W32H, Y36F, L46S, A91Y, N92V, S93T, F94Y

binding [5]: binds | binding [6]: binds | binding [7]: binds | binding [8]: binds
B6: anti-CD30L antibody clone 2 germlined (antibody, V domains shown)
VH: B4 VH with G62D, P88A, S91T
VL: B3 VL with I15V, S31N, W32H, Y36F, L46S, A91Y, N92V, S93T, F94Y

binding [2]: binds | binding [3]: binds
B7: anti-CD30L antibody clone 1 with IgG1 constant region SEQ ID NO: 502 (antibody, V domains shown)
VH: QVQLQESGPGLVKPSETLSLTCTVSGGSISGYYWSWIRQPPVKGLEWIGYIFYSGYTKYNPSLKSRVTISVDTSKNQFSLKLSSVTAADTAVYYCARDRWDFDYWGQGALVTVSS
VL: AIQMTQSPSYLSASVGDRVTIACRASQGIRNNLGWYQQKPGKAPKLLIYAESSLQSGVPSRFSGSGSGTDFTLTISSLQPEDFATYYCLQDFNYPYTFGQGTKLEIK
